Measurements reported in article PMC6232118.
Results are given in words; binding and its absence hold for the method and conditions named. For some assays here: In cells and extracts the contact can be indirect. Some binding calls cover weakened binding; strength is not graded here. Where a sequence is shown, tags or fusion partners need not be part of it.

Columns and labels:
[1] = target: T1, FlhD from E. coli with carboxy-terminal hexa-histidine (E. coli MG1655) (UniProt P0A8S9); test: pull-down; co-purification of FlhC with FlhD-His6 on a 5 ml His-trap (Ni) column after co-expression in E. coli BL21; Tricine SDS-PAGE, Coomassie staining
T1 sequence: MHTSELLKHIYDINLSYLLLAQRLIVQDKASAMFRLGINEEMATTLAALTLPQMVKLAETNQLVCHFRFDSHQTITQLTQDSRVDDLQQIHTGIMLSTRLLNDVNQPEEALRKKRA

[2] = target: T1, FlhD from E. coli with carboxy-terminal hexa-histidine (E. coli MG1655); test: co-purification on a heparin column; FlhD-His6 and FlhC co-expressed in E. coli BL21, complex recovered on a 5 ml heparin column (used to mimic DNA); Tricine SDS-PAGE, Coomassie staining

binding [1]: binds | binding [2]: binds
B1: FlhC from E. coli (protein, UniProt P0ABY7 1-192)
chain: MSEKSIVQEARDIQLAMELITLGARLQMLESETQLSRGRLIKLYKELRGSPPPKGMLPFSTDWFMTWEQNVHASMFCNAWQFLLKTGLCNGVDAVIKAYRLYLEQCPQAEEGPLLALTRAWTLVRFVESGLLQLSSCNCCGGNFITHAHQPVGSFACSLCQPPSRAVKRRKLSQNPADIIPQLLDEQRVQAV
